For test [1], the target named is T1, MAX (MYC-associated factor X), mouse, endogenous (mouse (endogenous in mouse liver)), P28574. The test is described as follows: co-IP; anti-MAX antibody, then western blotting; cytoplasm and nucleus from CCA and normal mouse liver. The following applies: remark: other sources report otherwise.
Test [2] addresses T1, MAX (MYC-associated factor X), mouse, …. Kind of test: co-IP; cholangiocytes isolated from CCA and control mouse liver, then western blotting. To be noted: remark: other sources report otherwise.

No constants are given. Whether binding was seen depends on the method and setting. In cells and extracts the contact can be indirect. Some results given as binding are weak or reduced against the parent protein; the word gives no strength. Tags and fused reporters may be left off the sequences shown.

B1: C-MYC, mouse, endogenous, P01108 1-454 (protein)
chain: MDFLWALETPQTATTMPLNVNFTNRNYDLDYDSVQPYFICDEEENFYHQQQQSELQPPAPSEDIWKKFELLPTPPLSPSRRSGLCSPSYVAVATSFSPREDDDGGGGNFSTADQLEMMTELLGGDMVNQSFICDPDDETFIKNIIIQDCMWSGFSAAAKLVSEKLASYQAARKDSTSLSPARGHSVCSTSSLYLQDLTAAASECIDPSVVFPYPLNDSSSPKSCTSSDSTAFSPSSDSLLSSESSPRASPEPLVLHEETPPTTSSDSEEEQEDEEEIDVVSVEKRQTPAKRSESGSSPSRGHSKPPHSPLVLKRCHVSTHQHNYAAPPSTRKDYPAAKRAKLDSGRVLKQISNNRKCSSPRSSDTEENDKRRTHNVLERQRRNELKRSFFALRDQIPELENNEKAPKVVILKKATAYILSIQADEHKLTSEKDLLRKRREQLKHKLEQLRNSGA
Take B1: the binding result in test [1] and in test [2] was “binds” each time.

(Values after publication PMC10289747.)
